Results are given in words; binding and its absence hold for the method and conditions named. Binding seen in cells or lysates may run through a third protein. Some entries that bind do so weakly or less than the wild type.
Assays:
[1] = target: C-terminal FLAG-tagged RNF43 R337* (human) (UniProt Q68DV7); experiment: co-IP; HEK293T cells co-transfected with C-terminal FLAG-tagged RNF43 (WT or mutant) and mFZD5-HA; lysis in 50 mM Tris pH 7.5, 150 mM NaCl, 0.5% Triton X-100, 5 mM EDTA, 1 mM DTT; immunoprecipitated with control IgG or FLAG antibody and Protein G Agarose at 4 °C; immunoblot
[2] = target: C-terminal FLAG-tagged WT RNF43 (human) (UniProt Q68DV7); experiment: as above

Chains of the proteins cited; added tags and fusions are not shown. Lines headed by an entry give the natural chain unless they say otherwise; changes in a name come on top. A line that says so, or that is headed by a name, gives the form on record, which may keep a tag or linker. Residues count along the entry.
UniProt Q68DV7: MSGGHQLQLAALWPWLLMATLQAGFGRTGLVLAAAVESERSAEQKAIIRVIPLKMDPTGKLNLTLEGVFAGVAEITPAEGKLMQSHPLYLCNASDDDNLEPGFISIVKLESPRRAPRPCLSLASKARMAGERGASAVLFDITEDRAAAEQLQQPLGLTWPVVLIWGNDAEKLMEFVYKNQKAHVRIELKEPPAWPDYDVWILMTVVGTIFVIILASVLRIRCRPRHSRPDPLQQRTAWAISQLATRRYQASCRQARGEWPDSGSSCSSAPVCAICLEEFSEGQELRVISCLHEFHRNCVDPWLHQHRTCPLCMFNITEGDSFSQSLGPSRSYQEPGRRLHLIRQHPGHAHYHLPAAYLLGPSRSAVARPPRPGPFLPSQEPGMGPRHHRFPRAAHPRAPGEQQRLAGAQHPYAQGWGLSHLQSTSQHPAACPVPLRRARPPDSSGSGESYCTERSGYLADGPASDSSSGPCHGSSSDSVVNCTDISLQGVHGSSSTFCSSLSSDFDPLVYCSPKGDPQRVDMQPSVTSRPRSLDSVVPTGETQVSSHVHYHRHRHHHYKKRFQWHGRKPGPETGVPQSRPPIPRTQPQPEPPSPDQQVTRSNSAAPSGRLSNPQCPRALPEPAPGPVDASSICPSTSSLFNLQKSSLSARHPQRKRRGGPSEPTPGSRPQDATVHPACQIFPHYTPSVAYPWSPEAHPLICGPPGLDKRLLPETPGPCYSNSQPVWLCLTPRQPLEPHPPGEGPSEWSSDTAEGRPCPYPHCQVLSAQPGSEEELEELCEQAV
C-terminal FLAG-tagged WT RNF43: residues 24-783 of Q68DV7
C-terminal FLAG-tagged RNF43 R337*: residues 24-336 of Q68DV7
UniProt Q9EQD0, residues 27-585: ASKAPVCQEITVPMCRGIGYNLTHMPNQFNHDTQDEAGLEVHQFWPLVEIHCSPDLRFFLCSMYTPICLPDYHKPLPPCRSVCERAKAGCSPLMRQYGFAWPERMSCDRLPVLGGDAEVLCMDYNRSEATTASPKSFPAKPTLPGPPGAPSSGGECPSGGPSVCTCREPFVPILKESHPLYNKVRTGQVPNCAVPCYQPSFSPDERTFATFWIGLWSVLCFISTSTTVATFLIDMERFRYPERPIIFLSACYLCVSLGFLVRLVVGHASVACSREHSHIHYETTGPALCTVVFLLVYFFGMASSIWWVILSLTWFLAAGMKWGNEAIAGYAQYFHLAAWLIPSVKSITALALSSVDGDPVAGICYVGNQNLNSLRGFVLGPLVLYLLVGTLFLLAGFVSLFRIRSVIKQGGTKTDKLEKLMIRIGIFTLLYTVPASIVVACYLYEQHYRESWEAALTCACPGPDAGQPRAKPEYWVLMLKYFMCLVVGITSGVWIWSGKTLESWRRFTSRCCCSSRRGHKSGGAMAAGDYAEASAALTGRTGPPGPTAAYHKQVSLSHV

mFZD5-HA (from UniProt Q9EQD0 27-585) (receptor)
binding [1]: binds
binding [2]: binds
